Reference: paper doi:10.1101/2024.07.12.603302
These are yes or no findings as the source states them, for the method shown. In cells and extracts the contact can be indirect. These calls come from enrichment with a bait or labelling near it, and not all partners need be listed. For some of these results: Sequences can lack the tags named with a protein.

Protein sequences, listed by entry. Tags and fused reporters are not part of them. Lines headed by an entry give the natural chain unless they say otherwise; changes in a name come on top.
UniProt P62136: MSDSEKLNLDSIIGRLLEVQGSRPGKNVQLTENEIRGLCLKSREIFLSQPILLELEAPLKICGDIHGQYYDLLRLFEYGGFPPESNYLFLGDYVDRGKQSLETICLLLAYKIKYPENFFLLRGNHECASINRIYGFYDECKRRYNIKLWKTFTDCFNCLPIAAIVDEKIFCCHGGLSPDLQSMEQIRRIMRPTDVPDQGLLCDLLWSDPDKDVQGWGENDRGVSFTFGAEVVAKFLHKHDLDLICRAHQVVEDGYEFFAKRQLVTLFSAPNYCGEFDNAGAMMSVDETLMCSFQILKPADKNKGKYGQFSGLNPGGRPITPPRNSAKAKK
UniProt P46013: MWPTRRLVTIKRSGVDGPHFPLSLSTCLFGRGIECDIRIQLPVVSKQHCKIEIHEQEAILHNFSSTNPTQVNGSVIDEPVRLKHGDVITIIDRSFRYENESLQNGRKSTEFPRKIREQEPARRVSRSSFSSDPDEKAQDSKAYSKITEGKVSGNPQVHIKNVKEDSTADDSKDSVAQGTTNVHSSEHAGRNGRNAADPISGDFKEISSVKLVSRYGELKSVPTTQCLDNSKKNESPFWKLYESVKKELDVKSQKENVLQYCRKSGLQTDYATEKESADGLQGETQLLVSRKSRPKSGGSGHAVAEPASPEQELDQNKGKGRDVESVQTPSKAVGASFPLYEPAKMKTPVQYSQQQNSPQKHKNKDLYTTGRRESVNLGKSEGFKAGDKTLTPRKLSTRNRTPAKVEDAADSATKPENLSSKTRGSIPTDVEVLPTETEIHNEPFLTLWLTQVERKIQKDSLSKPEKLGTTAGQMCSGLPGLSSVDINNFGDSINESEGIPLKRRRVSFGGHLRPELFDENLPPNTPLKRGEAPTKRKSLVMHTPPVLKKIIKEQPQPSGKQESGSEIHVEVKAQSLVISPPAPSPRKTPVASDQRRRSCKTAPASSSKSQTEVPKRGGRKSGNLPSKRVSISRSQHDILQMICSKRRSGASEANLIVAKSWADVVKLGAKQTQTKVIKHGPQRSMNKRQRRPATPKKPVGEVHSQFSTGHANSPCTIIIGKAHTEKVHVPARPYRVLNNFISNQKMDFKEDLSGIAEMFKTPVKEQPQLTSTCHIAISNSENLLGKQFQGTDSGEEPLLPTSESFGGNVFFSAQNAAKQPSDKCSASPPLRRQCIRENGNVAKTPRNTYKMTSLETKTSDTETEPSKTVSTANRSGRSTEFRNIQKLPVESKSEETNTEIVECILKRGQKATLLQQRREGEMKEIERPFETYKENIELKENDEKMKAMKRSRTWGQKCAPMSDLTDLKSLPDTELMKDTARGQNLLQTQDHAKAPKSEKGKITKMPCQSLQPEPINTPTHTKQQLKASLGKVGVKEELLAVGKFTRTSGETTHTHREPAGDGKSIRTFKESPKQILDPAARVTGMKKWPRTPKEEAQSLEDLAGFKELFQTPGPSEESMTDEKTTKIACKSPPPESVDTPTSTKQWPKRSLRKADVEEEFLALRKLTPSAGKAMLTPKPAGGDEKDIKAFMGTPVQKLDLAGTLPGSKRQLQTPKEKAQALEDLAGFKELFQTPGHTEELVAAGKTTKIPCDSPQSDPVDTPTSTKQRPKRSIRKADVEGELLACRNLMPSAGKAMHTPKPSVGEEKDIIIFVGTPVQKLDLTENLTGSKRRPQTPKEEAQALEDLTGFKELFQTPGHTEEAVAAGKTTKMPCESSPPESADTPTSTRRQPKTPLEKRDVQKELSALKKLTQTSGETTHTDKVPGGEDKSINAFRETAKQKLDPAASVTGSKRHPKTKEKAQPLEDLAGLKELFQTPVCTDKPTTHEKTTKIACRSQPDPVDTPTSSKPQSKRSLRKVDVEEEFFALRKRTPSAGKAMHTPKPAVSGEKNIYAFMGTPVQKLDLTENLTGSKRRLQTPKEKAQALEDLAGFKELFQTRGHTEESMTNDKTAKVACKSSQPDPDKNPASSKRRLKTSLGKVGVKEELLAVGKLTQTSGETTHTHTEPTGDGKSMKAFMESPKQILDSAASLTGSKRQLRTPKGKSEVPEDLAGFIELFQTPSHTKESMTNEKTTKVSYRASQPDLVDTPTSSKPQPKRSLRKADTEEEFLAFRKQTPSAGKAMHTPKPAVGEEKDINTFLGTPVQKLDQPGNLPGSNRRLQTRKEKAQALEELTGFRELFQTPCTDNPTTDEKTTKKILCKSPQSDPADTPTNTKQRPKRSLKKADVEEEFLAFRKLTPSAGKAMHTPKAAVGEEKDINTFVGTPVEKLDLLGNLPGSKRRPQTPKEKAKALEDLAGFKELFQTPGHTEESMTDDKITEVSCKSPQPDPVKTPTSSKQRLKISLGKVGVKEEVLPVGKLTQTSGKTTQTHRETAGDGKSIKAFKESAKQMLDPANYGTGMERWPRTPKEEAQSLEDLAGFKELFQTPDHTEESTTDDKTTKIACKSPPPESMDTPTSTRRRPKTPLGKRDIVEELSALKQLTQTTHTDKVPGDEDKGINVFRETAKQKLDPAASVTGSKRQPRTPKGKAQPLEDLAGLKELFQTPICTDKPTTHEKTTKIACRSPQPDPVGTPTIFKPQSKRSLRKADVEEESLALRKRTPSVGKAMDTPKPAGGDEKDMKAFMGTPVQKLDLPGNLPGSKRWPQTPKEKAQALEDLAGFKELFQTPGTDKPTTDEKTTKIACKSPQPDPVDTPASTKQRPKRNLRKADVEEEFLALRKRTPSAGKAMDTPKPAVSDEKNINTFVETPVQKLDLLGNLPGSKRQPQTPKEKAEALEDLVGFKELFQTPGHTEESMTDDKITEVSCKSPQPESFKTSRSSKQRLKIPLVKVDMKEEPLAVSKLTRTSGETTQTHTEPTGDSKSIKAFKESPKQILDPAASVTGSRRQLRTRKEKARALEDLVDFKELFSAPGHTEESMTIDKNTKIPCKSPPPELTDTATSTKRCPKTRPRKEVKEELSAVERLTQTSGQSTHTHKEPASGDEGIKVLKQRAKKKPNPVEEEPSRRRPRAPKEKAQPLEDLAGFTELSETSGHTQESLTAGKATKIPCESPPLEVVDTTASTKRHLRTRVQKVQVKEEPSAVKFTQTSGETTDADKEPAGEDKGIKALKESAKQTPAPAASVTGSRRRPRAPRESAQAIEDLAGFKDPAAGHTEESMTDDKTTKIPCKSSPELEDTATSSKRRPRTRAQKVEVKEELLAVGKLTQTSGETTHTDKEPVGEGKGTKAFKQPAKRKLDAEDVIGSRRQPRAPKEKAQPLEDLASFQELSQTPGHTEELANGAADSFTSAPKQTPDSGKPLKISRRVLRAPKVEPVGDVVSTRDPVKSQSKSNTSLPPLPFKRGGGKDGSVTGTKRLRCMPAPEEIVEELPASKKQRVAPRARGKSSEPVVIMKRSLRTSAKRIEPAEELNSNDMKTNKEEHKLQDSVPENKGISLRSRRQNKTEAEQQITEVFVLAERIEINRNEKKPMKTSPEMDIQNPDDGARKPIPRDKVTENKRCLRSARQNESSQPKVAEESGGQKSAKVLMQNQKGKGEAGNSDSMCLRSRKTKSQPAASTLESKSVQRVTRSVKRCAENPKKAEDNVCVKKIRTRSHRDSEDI
UniProt Q6NZY4: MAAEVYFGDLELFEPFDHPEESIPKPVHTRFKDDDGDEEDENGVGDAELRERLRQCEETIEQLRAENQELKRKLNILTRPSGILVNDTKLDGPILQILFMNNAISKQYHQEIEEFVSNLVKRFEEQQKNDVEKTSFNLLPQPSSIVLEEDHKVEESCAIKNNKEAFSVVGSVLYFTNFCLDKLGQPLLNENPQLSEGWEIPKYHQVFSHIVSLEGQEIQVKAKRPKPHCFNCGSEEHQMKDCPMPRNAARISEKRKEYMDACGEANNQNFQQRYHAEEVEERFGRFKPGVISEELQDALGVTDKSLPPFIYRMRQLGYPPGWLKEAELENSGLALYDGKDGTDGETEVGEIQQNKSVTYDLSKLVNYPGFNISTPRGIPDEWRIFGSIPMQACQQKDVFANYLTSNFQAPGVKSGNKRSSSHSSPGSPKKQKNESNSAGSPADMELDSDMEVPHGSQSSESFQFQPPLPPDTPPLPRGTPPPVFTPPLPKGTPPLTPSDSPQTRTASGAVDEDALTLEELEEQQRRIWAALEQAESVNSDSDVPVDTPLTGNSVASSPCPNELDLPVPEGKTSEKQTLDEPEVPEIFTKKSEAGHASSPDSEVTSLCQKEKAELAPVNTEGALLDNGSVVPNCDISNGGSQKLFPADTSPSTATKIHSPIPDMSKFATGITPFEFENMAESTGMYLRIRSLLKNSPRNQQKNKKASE
UniProt Q6UXN9: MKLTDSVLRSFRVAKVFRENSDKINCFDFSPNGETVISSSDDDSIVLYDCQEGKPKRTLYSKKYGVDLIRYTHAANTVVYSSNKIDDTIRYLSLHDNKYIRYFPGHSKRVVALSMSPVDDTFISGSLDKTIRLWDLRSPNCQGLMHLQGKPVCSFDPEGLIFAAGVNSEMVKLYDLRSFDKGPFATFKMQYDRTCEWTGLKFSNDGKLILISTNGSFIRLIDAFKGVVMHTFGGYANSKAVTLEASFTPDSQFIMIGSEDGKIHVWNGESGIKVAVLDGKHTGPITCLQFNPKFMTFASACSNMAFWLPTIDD
UniProt Q12972: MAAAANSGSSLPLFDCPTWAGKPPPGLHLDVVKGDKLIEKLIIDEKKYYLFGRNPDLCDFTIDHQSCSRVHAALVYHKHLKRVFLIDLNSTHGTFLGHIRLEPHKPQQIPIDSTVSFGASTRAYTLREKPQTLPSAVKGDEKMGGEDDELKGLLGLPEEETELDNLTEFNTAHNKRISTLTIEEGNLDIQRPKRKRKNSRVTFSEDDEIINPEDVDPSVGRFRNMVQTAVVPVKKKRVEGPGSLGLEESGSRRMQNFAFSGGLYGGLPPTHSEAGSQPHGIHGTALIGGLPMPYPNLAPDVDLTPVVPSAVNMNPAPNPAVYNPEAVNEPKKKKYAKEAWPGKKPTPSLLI
UniProt Q9ULJ8: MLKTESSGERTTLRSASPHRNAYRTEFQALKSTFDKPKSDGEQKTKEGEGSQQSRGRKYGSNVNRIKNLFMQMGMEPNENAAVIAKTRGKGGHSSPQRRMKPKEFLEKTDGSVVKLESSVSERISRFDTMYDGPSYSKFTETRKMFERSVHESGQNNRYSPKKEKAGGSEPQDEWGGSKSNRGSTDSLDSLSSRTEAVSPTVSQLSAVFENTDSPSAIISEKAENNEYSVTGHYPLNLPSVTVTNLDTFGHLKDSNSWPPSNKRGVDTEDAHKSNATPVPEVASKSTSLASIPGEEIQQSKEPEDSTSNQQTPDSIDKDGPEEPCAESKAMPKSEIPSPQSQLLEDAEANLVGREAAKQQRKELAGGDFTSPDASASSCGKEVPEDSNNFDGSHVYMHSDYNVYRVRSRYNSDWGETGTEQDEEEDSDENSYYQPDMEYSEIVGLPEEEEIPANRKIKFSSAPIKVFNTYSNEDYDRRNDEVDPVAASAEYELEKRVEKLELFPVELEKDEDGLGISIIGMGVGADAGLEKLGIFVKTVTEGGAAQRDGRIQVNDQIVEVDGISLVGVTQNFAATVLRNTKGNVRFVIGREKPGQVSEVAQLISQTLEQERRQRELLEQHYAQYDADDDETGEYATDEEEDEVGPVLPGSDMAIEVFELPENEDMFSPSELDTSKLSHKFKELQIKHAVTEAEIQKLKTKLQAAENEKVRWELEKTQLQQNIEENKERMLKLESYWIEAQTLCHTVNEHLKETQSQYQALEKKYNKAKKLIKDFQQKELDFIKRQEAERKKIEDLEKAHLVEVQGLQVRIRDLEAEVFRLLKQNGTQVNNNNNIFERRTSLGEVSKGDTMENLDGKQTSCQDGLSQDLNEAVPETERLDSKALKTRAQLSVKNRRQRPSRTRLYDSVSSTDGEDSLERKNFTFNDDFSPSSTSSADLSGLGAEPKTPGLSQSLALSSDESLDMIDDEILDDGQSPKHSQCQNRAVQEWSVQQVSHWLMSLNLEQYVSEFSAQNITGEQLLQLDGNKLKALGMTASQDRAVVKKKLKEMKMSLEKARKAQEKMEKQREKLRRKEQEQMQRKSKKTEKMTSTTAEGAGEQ

What was measured:
Test in all cases: affinity purification with mass spectrometry
[1] = target: PP1^H66K-PNUTS fusion: Avitag PP1α (1-304, H66K) linked by SGSGS to PNUTS (408-940) (UniProt P62136)
[2] = target: T1, Full length Avitag-PNUTS 1-940 (UniProt Q96QC0)
T1 sequence: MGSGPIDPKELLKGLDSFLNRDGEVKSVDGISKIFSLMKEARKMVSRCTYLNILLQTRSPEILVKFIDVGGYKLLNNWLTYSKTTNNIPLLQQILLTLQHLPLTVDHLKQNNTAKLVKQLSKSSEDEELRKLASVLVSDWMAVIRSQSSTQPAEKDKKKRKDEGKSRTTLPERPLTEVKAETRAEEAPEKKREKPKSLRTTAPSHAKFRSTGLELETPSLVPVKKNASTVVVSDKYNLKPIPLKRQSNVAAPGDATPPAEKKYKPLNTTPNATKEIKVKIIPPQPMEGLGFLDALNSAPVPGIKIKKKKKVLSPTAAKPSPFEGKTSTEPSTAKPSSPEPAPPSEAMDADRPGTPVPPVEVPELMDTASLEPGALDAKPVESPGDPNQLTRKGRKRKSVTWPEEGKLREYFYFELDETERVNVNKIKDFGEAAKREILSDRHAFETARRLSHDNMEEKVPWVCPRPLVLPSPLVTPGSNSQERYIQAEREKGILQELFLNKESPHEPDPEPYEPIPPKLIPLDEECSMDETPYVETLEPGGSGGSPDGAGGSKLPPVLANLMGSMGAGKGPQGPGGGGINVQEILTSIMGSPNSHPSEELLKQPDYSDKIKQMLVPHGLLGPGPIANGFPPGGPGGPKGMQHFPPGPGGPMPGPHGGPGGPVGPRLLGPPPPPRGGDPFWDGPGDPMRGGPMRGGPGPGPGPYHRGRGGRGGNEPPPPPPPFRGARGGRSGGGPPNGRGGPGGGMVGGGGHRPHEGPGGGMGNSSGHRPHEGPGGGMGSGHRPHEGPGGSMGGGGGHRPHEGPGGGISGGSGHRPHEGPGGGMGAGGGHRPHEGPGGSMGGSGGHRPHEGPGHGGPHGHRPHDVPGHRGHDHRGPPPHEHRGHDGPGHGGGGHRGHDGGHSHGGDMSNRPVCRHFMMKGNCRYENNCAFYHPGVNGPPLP

[3] = target: PP1^WT-PNUTS fusion: Avitag PP1α (1-304) linked by SGSGS to PNUTS (408-940) (UniProt P62136)

Row | Substance | binding [1] | binding [2] | binding [3]
1 | MK167 (from UniProt P46013 1-3256) | binds |  | 
2 | ZCCHC8 (from UniProt Q6NZY4 1-707) | binds |  | 
3 | PP1 catalytic subunit (PPP1CA) (from UniProt P62136 1-330) (enzyme) |  | binds | 
4 | RIF1 (from UniProt Q5UIP0 1-2472) | binds |  | binds
5 | WDR82 (from UniProt Q6UXN9 1-313) | binds | binds | binds
6 | PPP1R8 (from UniProt Q12972 1-351) | binds | binds | binds
7 | PPP1R9B (spinophilin) (from UniProt Q96SB3 1-817) |  | binds | 
8 | PPP1R9A (from UniProt Q9ULJ8 1-1098) | binds |  | 
